Measured values taken from patent US9834514B2, “Antibiotic sensitivity-restoring and photosensitive agents” (New Mexico Tech Research Foundation, priority 2015, dated 2017).
Some entries share one result that the patent states for a list of compounds.

Tested on: Klebsiella pneumoniae (CRE, ATCC BAA-1705)
Test: Cell killing of CRE with compounds in presence or absence of PMB (CFU/mL)
Assay type: cell-based
Details: PMB 200 ng/mL, compound 20 μM; FIG. 47
Description: Klebsiella pneumoniae (CRE, ATCC BAA-1705) was grown in TSB overnight at 37° C. and diluted to about 5×10^5 CFU/mL using a McFarland Latex Turbidity standard (0.5). One mL of the cell suspension was transferred to a glass culture test tube. PMB was added to the cell suspension resulting in a final concentration of 200 μg/mL of PMB. The cell suspension was incubated at 37° C. on a rotary shaking incubator at 150 rpm for 4 hours. Compounds 1, 7, 8, 9, 10, and 11 were added to the cell suspension, resulting in a concentration of 20 μM for each of the compounds. The cell suspensions containing the compounds were incubated at 37° C. on a rotary shaking incubator at 150 rpm for 4 hours. Each sample was diluted tenfold to a 10^−5 dilution. Ten 10 microliters of each dilution from each sample was dripped onto a TSA plate and allowed to streak down the plate. The agar plates were incubated at 37° C. for 18-24 hours. Colony counts were performed and CFU/mL values were calculated.
The MICs of PMB and compounds 7-11 were determined against Klebsiella pneumoniae (CRE, ATCC BAA-1705). […] After the incubation with PMB, each of the compounds was added at a concentration of 20 μM, and the samples were incubated for an additional 18 hours. A sample was taken and diluted ten-fold in media. Ten microliters of each dilution was then drip-streaked onto an agar plate and incubated overnight at 37° C. Colony counts were then performed and the concentrations of cells (CFU/mL) were calculated.

SMILES	synergy with PMB against CRE (colony counts)
Brc1ccc(/N=N/c2c[nH]c3ccccc23)cc1 [Compound 8]	reduced the bacterial population to sterility
Clc1ccc(/N=N/c2c[nH]c3ccccc23)cc1 [Compound 9]	reduced the bacterial population to sterility
Clc1ccc(Oc2c(-c3ccc(Cl)cc3)[nH]c3ccccc23)cc1 [Compound 10]	reduced the bacterial population to sterility
Clc1ccc(Oc2c(-c3ccc(Cl)cc3)[nH]c3ccc(Cl)cc23)cc1 [Compound 11]	reduced the bacterial population to sterility
